Source: patent US20040176301A1
Results are given in words; binding and its absence hold for the method and conditions named. Some entries that bind do so weakly or less than the wild type. Tags and fused reporters may be left off the sequences shown.

Target: Cyclin A (UniProt P20248)
Assay: competitive cyclin A binding ELISA

B1: GST-pRb(772-928) (protein, UniProt P06400 772-928, looked up, not shown: a dimerising Fc or GST)
chain: ASTRPPTLSPIPHIPRSPYKFPSSPLRIPGGNIYISPLKSPYKISEGLPTPTKMTPRSRILVSIGESFGTSEKFQKINQMVCNSDRVLKRSAEGSNPPKPLKKLRFDIEGSDEADGSKHLPGESKFQQKLAEMTSTRTRMQKQKMNDSMDTSNKEEK
With B1 the binding was “binds”.
